This note sets out measurements from publication doi:10.1101/2022.09.10.507413.

The chains behind the UniProt entries cited, without tags or fusion partners. Residues count along the entry.
UniProt P11276, residues 33-2477: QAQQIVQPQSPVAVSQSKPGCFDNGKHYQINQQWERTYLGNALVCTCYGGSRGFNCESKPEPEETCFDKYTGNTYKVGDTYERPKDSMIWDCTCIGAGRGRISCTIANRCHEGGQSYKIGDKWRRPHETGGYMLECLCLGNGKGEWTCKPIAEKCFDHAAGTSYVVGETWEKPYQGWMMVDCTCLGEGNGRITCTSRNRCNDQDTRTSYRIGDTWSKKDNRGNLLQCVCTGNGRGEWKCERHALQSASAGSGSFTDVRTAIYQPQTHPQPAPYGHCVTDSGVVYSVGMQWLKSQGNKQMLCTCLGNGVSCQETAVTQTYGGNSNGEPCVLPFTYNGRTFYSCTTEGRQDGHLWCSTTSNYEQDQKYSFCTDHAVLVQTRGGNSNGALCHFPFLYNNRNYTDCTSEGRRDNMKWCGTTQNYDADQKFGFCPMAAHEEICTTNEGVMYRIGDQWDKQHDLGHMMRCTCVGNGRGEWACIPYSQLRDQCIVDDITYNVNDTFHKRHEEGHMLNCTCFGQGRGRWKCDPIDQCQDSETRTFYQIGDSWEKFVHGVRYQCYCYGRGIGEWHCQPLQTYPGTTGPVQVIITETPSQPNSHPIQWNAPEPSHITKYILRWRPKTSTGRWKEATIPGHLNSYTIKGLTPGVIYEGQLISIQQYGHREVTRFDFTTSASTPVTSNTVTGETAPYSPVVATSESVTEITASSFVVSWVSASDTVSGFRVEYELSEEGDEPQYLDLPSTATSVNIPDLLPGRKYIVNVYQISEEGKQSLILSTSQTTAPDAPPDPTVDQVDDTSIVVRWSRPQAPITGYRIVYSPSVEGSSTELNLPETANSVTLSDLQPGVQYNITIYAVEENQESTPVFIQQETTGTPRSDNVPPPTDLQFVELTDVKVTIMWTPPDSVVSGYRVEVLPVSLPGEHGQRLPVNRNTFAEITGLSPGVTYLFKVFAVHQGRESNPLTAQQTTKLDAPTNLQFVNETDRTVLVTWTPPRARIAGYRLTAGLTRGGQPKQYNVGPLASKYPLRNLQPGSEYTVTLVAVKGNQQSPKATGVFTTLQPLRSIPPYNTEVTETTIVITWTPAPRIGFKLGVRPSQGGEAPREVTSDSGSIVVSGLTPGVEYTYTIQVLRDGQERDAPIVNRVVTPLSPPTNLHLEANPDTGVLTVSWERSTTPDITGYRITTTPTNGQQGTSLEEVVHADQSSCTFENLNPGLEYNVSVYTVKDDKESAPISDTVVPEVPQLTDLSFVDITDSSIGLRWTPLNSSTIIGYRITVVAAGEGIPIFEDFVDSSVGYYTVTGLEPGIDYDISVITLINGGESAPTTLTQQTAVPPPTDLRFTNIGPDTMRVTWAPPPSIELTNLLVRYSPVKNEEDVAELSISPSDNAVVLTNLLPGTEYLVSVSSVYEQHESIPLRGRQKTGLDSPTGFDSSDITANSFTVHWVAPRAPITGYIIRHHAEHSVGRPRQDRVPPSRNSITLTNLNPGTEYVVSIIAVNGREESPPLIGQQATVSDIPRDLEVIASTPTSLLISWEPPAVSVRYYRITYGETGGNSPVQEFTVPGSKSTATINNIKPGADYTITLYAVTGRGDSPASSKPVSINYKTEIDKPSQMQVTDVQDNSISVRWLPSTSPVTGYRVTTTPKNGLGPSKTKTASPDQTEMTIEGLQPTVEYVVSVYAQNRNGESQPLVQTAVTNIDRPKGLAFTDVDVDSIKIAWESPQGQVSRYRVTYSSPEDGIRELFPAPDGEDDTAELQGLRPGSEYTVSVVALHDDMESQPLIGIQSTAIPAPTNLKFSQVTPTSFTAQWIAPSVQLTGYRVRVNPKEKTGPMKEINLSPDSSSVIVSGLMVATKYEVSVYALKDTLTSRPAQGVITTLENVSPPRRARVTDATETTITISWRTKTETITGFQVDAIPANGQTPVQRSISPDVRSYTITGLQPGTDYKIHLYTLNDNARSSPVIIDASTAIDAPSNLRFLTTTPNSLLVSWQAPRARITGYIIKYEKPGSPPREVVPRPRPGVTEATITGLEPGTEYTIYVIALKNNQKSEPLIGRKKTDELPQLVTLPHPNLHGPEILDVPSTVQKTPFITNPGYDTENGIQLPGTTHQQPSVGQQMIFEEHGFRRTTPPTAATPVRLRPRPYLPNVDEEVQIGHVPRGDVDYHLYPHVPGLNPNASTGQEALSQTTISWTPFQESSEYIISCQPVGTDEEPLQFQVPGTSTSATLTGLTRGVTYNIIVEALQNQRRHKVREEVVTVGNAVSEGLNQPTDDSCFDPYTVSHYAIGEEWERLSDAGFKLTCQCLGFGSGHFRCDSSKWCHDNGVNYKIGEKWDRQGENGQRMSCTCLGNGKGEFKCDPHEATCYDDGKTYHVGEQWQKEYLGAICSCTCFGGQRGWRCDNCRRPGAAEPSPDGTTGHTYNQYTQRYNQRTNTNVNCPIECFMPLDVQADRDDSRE

No constants are given. Whether binding was seen depends on the method and setting. In cells and extracts the contact can be indirect. Some results given as binding are weak or reduced against the parent protein; the word gives no strength. Sequences can lack the tags named with a protein.

For the assay, the target named is T1, Glutathione S-transferase theta 1 (Gstt1) (mouse (endogenous in PDAC-derived metastatic cell lines)) (UniProt Q64471).
T1 sequence: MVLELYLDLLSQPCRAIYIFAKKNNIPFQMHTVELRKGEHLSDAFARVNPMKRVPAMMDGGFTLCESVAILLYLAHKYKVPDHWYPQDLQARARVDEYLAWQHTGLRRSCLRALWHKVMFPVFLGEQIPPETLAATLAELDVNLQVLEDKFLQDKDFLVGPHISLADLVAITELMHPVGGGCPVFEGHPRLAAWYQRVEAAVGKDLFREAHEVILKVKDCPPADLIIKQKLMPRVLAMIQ
Description: co-IP.

Take Plectin (from UniProt Q9QXS1 1-4691): the binding entry is recorded as “binds”.

In the case of “Fibronectin (from UniProt P11276 33-2477)”, the binding entry is “binds”.
